Experimental findings from the supplement of paper PMC10398353 are described below.

Several values for one entry are separate records, joined by “and”; a condition that tells them apart may be missing. Equal values may be shown once. Where a name gives a salt, the structure may show the parent alone. ± gives the standard deviation of the averaged measurements. Some of the results follow. Single values of this set are uncertain.

The assay has as its system Salmonella enterica serovar Typhimurium ST313 D23580. Put plainly: normalized bacterial growth (OD600 20 h minus 0 h, interquartile-mean normalized) (fraction of plate interquartile mean); higher = more bacterial growth (less inhibition). As to conditions: LPM (pH 5.8, low phosphate, low Mg2+), concentration: 10 µM, temperature: 37 °C.
`Nc1ncnc2c1ncn2[C@@H]1O[C@@H]2COP(=O)(O)O[C@H]2[C@H]1O` ["Adenosine 3',5'-cyclic monophosphate"] showed a normalized bacterial growth of 0.998. `CC1=C(/C=C/C(C)=C/C=C/C(C)=C/C=C/C=C(C)/C=C/C=C(C)/C=C/C(=O)[C@]2(C)C[C@@H](O)CC2(C)C)C(C)(C)C[C@H](O)C1` showed a normalized bacterial growth of 0.764. Then `C[C@H]1[C@H]2CC[C@H]3[C@@H]4CC=C5C[C@@H](N(C)C)CC[C@]5(C)[C@H]4CC[C@]23CN1C` [Conessine], with 1.25; and `C[C@H]1[C@H]2CC[C@H]3[C@@H]4CC=C5C[C@@H](N(C)C)CC[C@]5(C)[C@H]4CC[C@]23CN1C`, with 1.14 ± 0.049; and `CC(C)C(=O)c1c(C(C)C)nn2ccccc12` [Ibudilast], with 1.04. Take `C[N+](C)(C)C[C@H](O)CC(=O)[O-]`: the normalized bacterial growth amounted to 1.19.

`CC(C)=CCC[C@@H](C)[C@@H]1CC[C@]2(C)C3=C(CC[C@@]12C)[C@@]1(C)CC[C@H](O)C(C)(C)[C@@H]1CC3` showed a normalized bacterial growth of 1.14. Take `CC(C)NCC(O)COc1cccc2[nH]ccc12` (stereo not given) [Pindolol]: the normalized bacterial growth was 1.35.

For the compound `OC(CCN1CCCC1)(c1ccccc1)C1CCCCC1` (stereo not given), the normalized bacterial growth was 0.886.

For the compound `CC(=O)/C(=C\c1ccccc1)CC(=O)O`, the normalized bacterial growth amounted to 0.543.

On to `CC(CN(C)C)CN1c2ccccc2CCc2ccccc21` (stereo not given) [Trimipramine maleate], for which the normalized bacterial growth turned out to be 0.845. Then `COC(=O)[C@H]1[C@H]2C[C@H]3c4[nH]c5ccccc5c4CCN3C[C@H]2CC[C@@H]1O`, with 0.93; and `COC(=O)[C@H]1[C@H]2C[C@H]3c4[nH]c5ccccc5c4CCN3C[C@H]2CC[C@@H]1O` [Rauwolscine hydrochloride], with 1.21. Take `COC(=O)C(C)(N)Cc1ccc(O)cc1` (racemic) [alpha-Methyl-DL-tyrosine methyl ester hydrochloride]: the normalized bacterial growth came to 1.1.

Compound `CCCCOc1ccc(C(=O)CCN2CCCCC2)cc1` showed a normalized bacterial growth of 0.819. Then `C=C1C(=O)O[C@H]2[C@H]1CC/C(C)=C/CC[C@@]1(C)O[C@@H]21`, with 0.86 ± 0.081; and `C=C1C(=O)O[C@H]2[C@H]1CC/C(C)=C/CC[C@@]1(C)O[C@@H]21` [Parthenolide], with 1.01. Then `COc1cccc(O)c1O`, with 1.05. Turning to `COc1ccc(CCn2nnnc2C2(c3ccc(C)cc3)CC2)cc1` [Mephetyl tetrazole], the normalized bacterial growth is 0.916.

On to `CC(C)(C)CC(C)(C)c1ccc(OCCOCC[N+](C)(C)Cc2ccccc2)cc1`, for which the normalized bacterial growth turned out to be 1.58. The figure for `COc1ccc(CCC(=O)c2c(O)cc(O[C@@H]3O[C@H](CO)[C@@H](O)[C@H](O)[C@H]3O[C@@H]3O[C@@H](C)[C@H](O)[C@@H](O)[C@H]3O)cc2O)cc1O` is 1.1.

With `CC(C)(C)NC(=O)[C@H]1CC[C@H]2[C@@H]3CC[C@H]4NC(=O)C=C[C@]4(C)[C@H]3CC[C@]12C` [Finasteride], the normalized bacterial growth came out at 1. The figure for `C=CC1=C(C)/C(=C/c2[nH]c(Cc3[nH]c(/C=C4\NC(=O)C(C)=C4C=C)c(C)c3CCC(=O)O)c(CCC(=O)O)c2C)NC1=O` is 0.571.

The compound `Nc1nc(N)c2nc(-c3ccccc3)c(N)nc2n1` [Triamterene] displayed a normalized bacterial growth of 1.21.

In the case of `C=C1CC[C@H](O)C/C1=C/C=C1\CCC[C@]2(C)[C@@H]([C@H](C)/C=C/[C@H](C)C(C)C)CC[C@@H]12` [Calciferol], the normalized bacterial growth was 1.18. Then `C=C1CC[C@H](O)C/C1=C/C=C1\CCC[C@]2(C)[C@@H]([C@H](C)/C=C/[C@H](C)C(C)C)CC[C@@H]12`, with 1.39; and `CC(C)=CCCC1(C)C=Cc2c(O)c3c(c(CC=C(C)C)c2O1)OC12C(=CCCC1C(C)(C)O[C@@]2(C/C=C(\C)C(=O)O)C(=O)O)C3=O` (stereo not given in full), with 1.38. The figure for `COc1cc(N)c(Cl)cc1C(=O)OCCN1CCCCC1` is 0.971; for `CC[C@H](c1ccc(O)cc1)[C@@H](CC)c1ccc(O)cc1` [Hexestrol] it is 1. The figure for `Cc1c(Nc2ncccc2C(=O)O)cccc1C(F)(F)F` [Flunixin meglumine] is 1.21. `Cc1c(Nc2ncccc2C(=O)O)cccc1C(F)(F)F` returned a normalized bacterial growth of 1.02. The figure for `CCCCCC(O)CCCC(=O)O` (stereo not given) [5-hydroxydecanoic acid sodium] is 1.14. The figure for `C/C=C(\C)C(=O)O[C@@H]1c2c(ccc3ccc(=O)oc23)OC(C)(C)[C@@H]1OC(C)=O` is 1.09. Then `CC(C)CCC[C@@H](C)[C@H]1CC[C@H]2[C@@H]3C[C@@H](O)[C@@]4(O)C[C@@H](O)CC[C@]4(C)[C@H]3CC[C@]12C` ["CHOLESTAN-3beta,5alpha,6beta-TRIOL"], with 1.14; and `CCCN(CC1CC1)c1nc(C)nc(Nc2c(Cl)cc(Cl)cc2Cl)c1Cl`, with 0.98. The compound `CC1O[C@H](O[C@]2(O[C@H]3CC[C@@]4(C)C(=CC[C@H]5[C@@H]6C[C@H]7[C@H]([C@H](C)[C@H]8CC[C@H](C)CN87)[C@@]6(C)CC[C@@H]54)C3)C[C@@H](O[C@@H]3OC(CO)[C@@H](O)[C@@H](O)C3O)[C@@H](O)C(CO)O2)C(O)[C@@H](O)[C@H]1O` (stereo partly drawn) [Solanine alpha] registered a normalized bacterial growth of 0.942. Then `CC1O[C@H](O[C@]2(O[C@H]3CC[C@@]4(C)C(=CC[C@H]5[C@@H]6C[C@H]7[C@H]([C@H](C)[C@H]8CC[C@H](C)CN87)[C@@]6(C)CC[C@@H]54)C3)C[C@@H](O[C@@H]3OC(CO)[C@@H](O)[C@@H](O)C3O)[C@@H](O)C(CO)O2)C(O)[C@@H](O)[C@H]1O` (stereo not given in full), with 1.07; and `CS[C@H]1SC[C@H]2C(=O)N(C)[C@@H](C(C)C)C(=O)OC[C@@H](NC(=O)c3cnc4ccccc4n3)C(=O)N[C@@H](C)C(=O)N(C)[C@@H]1C(=O)N(C)[C@@H](C(C)C)C(=O)OC[C@@H](NC(=O)c1cnc3ccccc3n1)C(=O)N[C@@H](C)C(=O)N2C`, with 0.424.

The compound `Nc1ncnc2c1ncn2C1CCCC1` [9-cyclopentyladenine] gave a normalized bacterial growth of 0.965. The figure for `C[C@]12CCC(=O)C=C1CC[C@@H]1[C@@H]2[C@@H](O)C[C@@]2(C)[C@H]1CC[C@]2(O)C(=O)COP(=O)(O)O` is 0.948. With `CC(=O)OCC(=O)[C@@]1(O)CC[C@H]2[C@@H]3CCC4=CC(=O)C=C[C@]4(C)[C@H]3[C@@H](O)C[C@@]21C`, the normalized bacterial growth worked out at 1.01.

`O=C1NC(c2cccc([N+](=O)[O-])c2)=CCN1c1ccccc1O` [Icilin] gave a normalized bacterial growth of 1.35. `COC(=O)[C@@]1(C)CCC[C@]2(C)c3ccc(O)c(C(C)C)c3CCC12` (stereo not given in full): the normalized bacterial growth is 0.874.

As for `O=C(O)CCCCCCCC(O)C(O)CCCCCCO` (stereo not given), the normalized bacterial growth was determined as 1.04. The figure for `NC(=O)c1ccccc1` [Benzamide] is 0.906; for `CN(Cc1cc(Br)cc(Br)c1N)C1CCCCC1` it is 0.76.

In the case of `C[C@H](CS)C(=O)N1CCC[C@H]1C(=O)O` [Captopril], the normalized bacterial growth came out at 1.03. Then `CC1(C)O[C@@H]2C[C@H]3[C@@H]4C[C@H](F)C5=CC(=O)C=C[C@]5(C)[C@H]4[C@@H](O)C[C@]3(C)[C@]2(C(=O)CO)O1`, with 0.92. The figure for `CC1(C)O[C@@H]2C[C@H]3[C@@H]4C[C@H](F)C5=CC(=O)C=C[C@]5(C)[C@H]4[C@@H](O)C[C@]3(C)[C@]2(C(=O)CO)O1` [Flunisolide] is 1.15. The figure for `NCCc1ccc(O)c(O)c1` [Dopamine hydrochloride] is 0.881; for `NCCc1ccc(O)c(O)c1` it is 0.939; for `C[C@H](Cc1ccc(O)c(O)c1)[C@@H](C)Cc1ccc(O)c(O)c1` it is 0.976. In the case of `NC(N)=NC(N)=Nc1ccccc1` [1-Phenylbiguanide], the normalized bacterial growth amounted to 1.01. In turn, `CC(C)c1c(O)ccc2c1CCC1[C@@](C)(C=O)CCC[C@]21C` (stereo not given in full) showed a normalized bacterial growth of 1.11.

As for `CCN1CCCC1CNC(=O)c1cc(S(N)(=O)=O)ccc1OC` (stereo not given) [()-Sulpiride], the normalized bacterial growth is 1.24. In turn, `CCN1CCCC1CNC(=O)c1cc(S(N)(=O)=O)ccc1OC` (stereo not given) yielded a normalized bacterial growth of 1.13.

Compound `O=C(O)c1cc2cc(F)ccc2[nH]1` [5-Fluoroindole-2-carboxylic acid] showed a normalized bacterial growth of 1.38. Compound `CCCCc1oc2ccccc2c1C(=O)c1cc(I)c(OCCN(CC)CC)c(I)c1` [Amiodarone hydrochloride] gave a normalized bacterial growth of 1.7.

On to `O=c1[nH]c(=O)n([C@H]2C[C@H](O)[C@@H](CO)O2)cc1I` [Idoxuridine], for which the normalized bacterial growth worked out at 1.15. The figure for `Cc1cccc(N(C)C(=S)Oc2ccc3ccccc3c2)c1` is 0.77; for `N[C@@H](COP(=O)(O)O)C(=O)O` [O-Phospho-L-serine] it is 1.05. The figure for `CC1(C)O[C@@H]2C[C@H]3[C@@H]4C[C@H](F)C5=CC(=O)CC[C@]5(C)[C@H]4[C@@H](O)C[C@]3(C)[C@]2(C(=O)CO)O1` is 0.941; for `CC1(C)O[C@@H]2C[C@H]3[C@@H]4C[C@H](F)C5=CC(=O)CC[C@]5(C)[C@H]4[C@@H](O)C[C@]3(C)[C@]2(C(=O)CO)O1` [Flurandrenolide] it is 1.12; for `CCC(=O)OCC(=O)[C@@]1(OC(=O)CC)[C@@H](C)C[C@H]2[C@@H]3CCC4=CC(=O)C=C[C@]4(C)[C@@]3(F)[C@@H](O)C[C@@]21C` it is 0.865. The figure for `CC1=CCc2c(cc3oc(C)cc(=O)c3c2O)OC1` is 0.988. `CC1(C)CC2C1CCC1(C)OC1CCC2(C)O` (stereo not given) yielded a normalized bacterial growth of 1.24. The figure for `COc1ccc(/C=C/c2cc(O)cc(O[C@@H]3O[C@H](CO)[C@@H](O)[C@H](O)[C@H]3O)c2)cc1O` is 0.953; for `NNC(=O)c1ccncc1` it is 1.25; for `CN(C(=O)CCCOc1ccc2[nH]c(=O)ccc2c1)C1CCCCC1` [Cilostamide] it is 1.03.

`CSCCC(N)C(=O)NC(CC(C)C)C(=O)NC(Cc1ccccc1)C(=O)O` (stereo not given) returned a normalized bacterial growth of 1.04. Then `CCC[C@@H]1C[C@@H](C(=O)N[C@@H]([C@H]2O[C@H](SC)[C@H](O)[C@@H](O)[C@H]2O)[C@@H](C)O)N(C)C1` [Lincomycin hydrochloride], with 1.05; and `CCC[C@@H]1C[C@@H](C(=O)N[C@@H]([C@H]2O[C@H](SC)[C@H](O)[C@@H](O)[C@H]2O)[C@@H](C)O)N(C)C1`, with 1.25 and 1.16. In the case of `C=C1C(N)CC2CC1C2(C)C` (stereo not drawn) [3-AMINO-beta-PINENE], the normalized bacterial growth is 0.77.

The compound `CN1CCCN=C1/C=C/c1cccs1` had a normalized bacterial growth of 1.05. The figure for `CN1CCCN=C1/C=C/c1cccs1` [Pyrantel tartrate] is 0.967.
